Results on 61 compounds are retold here after PubChem BioAssay AID445 (National Center for Advancing Translational Sciences (NCATS), 2006).

This assay in a line: IkB Signaling. The conditions noted are these: ABC-DLBCL IkBa-CBG/CBR dual luciferase ratio (green luciferase fused to IkBa over red control in OCI-Ly3 lymphoma cells), 4 h. A digest of the protocol:
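Curves were fitted separately to fusion (green), unfused (red) and ratio luminescence, then classed by r2, magnitude and activity. Cells: OCI-Ly3, 4 h compound plus doxycycline at 37C; 10 uM MG-132 defined full response.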

Where [1] appears, read: measured here: control luc red channel unless noted.
The mark [2] stands for this setting: measured here: IkB-luc green channel.
The mark [3] stands for this setting: measured here: control luc red channel.

Some of the results follow. The main result of the screen is listed elsewhere. These columns were measured beside it and carry no call. Most of these compounds were active or inconclusive in the main read-out, so they are no random draw. The note in brackets gives the kind of curve behind each potency; many fits are weak.

One may read the AC50 as the midpoint of the concentration-response curve, whichever way the signal moves. On to `Cc1ccc(CNC(=O)C(=O)NCC(c2cccs2)S(=O)(=O)c2cccs2)cc1` (stereo not drawn), for which the AC50 under setting [1] is 12.6 µM [falling, partial curve]. Consider `CC(C)(C)OC(=O)N1CCC(c2c(C(=O)Nc3ccc4c(c3)OCO4)cnn2-c2ccc(F)cc2F)CC1`, for which, under setting [1], the AC50 is 12.6 µM [falling, partial curve].

As for `CCOC(=O)c1[nH]c2ccccc2c1NC(=O)c1ccc(Br)o1`, the AC50 under setting [1] was 12.6 µM [falling, partial curve]. The same measure, in the same setting: to `Cc1cc(-c2ccc(C)c(S(=O)(=O)N(Cc3cccs3)C(C)C)c2)on1` belongs 20 µM [falling, single point]; to `O=C(c1cccc(C(=O)N2CCN(c3ccc(F)cc3)CC2)c1)N1CCN(c2ccc(F)cc2)CC1`, 7.94 µM [falling, partial curve]. Same read-out and setting: under `CCSc1nc2c([nH]c3ccccc32)c(=O)n1-c1ccc(OC)cc1` stands 1 µM [rising, full curve, poor fit]; under `Cc1cccc(NC(=O)CCNS(=O)(=O)c2ccc3c(c2)CCCC(=O)N3)c1C`, 3.16 µM [falling, single point].

Turning to `CCOC(=O)c1[nH]c2c(c1Cc1ccccc1)C(=O)CC(c1ccc(OC)cc1)C2` (stereo not drawn), the AC50 under setting [1] was 7.94 µM [falling, full curve]. Still for that read-out and setting: under `CCOC(=O)c1ccc(NC(=O)c2cnc(N3CCCC3)nc2C)cc1` stands 39.8 µM [falling, single point]; under `CCc1ccc(NC(=O)CSC2=Nc3ccccc3C3=NC(CC(=O)NCc4ccc5c(c4)OCO5)C(=O)N23)cc1` (stereo not drawn), 25.1 µM [falling, single point]. Take `c1coc(-c2nc3ccccn3c2Nc2ccc3c(c2)OCCO3)c1`: the half-maximal activity concentration (AC50) under setting [1] was 0.398 µM [falling, partial curve]. Regarding `Cc1ccc(Cn2c(SCc3ccc(C(=O)NCCc4ccccc4)cc3)nc3ccncc32)cc1`, under setting [1], the AC50 is 5.01 µM [falling, full curve, poor fit]. Turning to `COc1ccc(-c2cn3c(n2)sc2cc(C(=O)Nc4ccccc4F)ccc23)cc1`, the concentration at half-maximal activity (AC50) under setting [1] was 5.01 µM [falling, partial curve]. Same read-out and setting: under `Cc1cc(N2CCOCC2)nc(SCC(=O)c2ccccc2)n1` stands 12.6 µM [falling, partial curve]; under `CCCCNC(=O)C1CCCN(c2nnc(C)c3c(C)n(-c4ccc(Cl)cc4)nc23)C1` (stereo not drawn), 25.1 µM [falling, single point].

On to `CN1CCc2c(sc3c2C(=O)NC(c2ccc(-c4cccc(Cl)c4)o2)N3)C1` (stereo not drawn), for which the AC50 under setting [1] was 12.6 µM [falling, partial curve].

`N#CC(=C(/N)Sc1ccccc1N)/C(C#N)=C(/N)Sc1ccccc1N`: the half-maximal activity concentration (AC50) under setting [1] is 0.398 µM [falling, full curve]. In the case of `CC(C)c1ccc(S(=O)(=O)Nc2ccc(O)c(Sc3nc4ccccc4s3)c2)cc1`, the AC50 under setting [1] was 20 µM [falling, single point]. Regarding `CSc1cccc(NC(=O)C2CCN(S(=O)(=O)c3ccc4[nH]c(=O)ccc4c3)CC2)c1`, the half-maximal activity concentration (AC50) under setting [1] is 5.01 µM [falling, full curve]. With `CCOC(=O)C1(C)C=C(Nc2ccc(C)cc2)C(=O)N1c1ccccc1` (stereo not drawn), the AC50 under setting [1] was 0.2 µM [falling, full curve, poor fit].

`CCCCC(CC)CNC(=O)c1ccc2c(c1)OCO2` (stereo not drawn): the AC50 under setting [1] was 15.8 µM [falling, partial curve]. Take `O=C(c1ccncc1)N1CCC[C@@]2(CCN(c3cccc(-c4ccccc4)c3)C2)C1`: the half-maximal activity concentration (AC50) under setting [1] is 3.16 µM [falling, partial curve]. Still for that read-out and setting: to `COc1ccc(NC(=O)CN(c2cccc(C)c2C)S(=O)(=O)c2ccccc2)cc1OC` belongs 25.1 µM [falling, single point]. `CC(=O)c1cccc(NC(=O)c2noc3c2CC(C)CC3)c1` (stereo not drawn): the AC50 under setting [1] is 1.58 µM [rising, full curve, poor fit]. Same read-out and setting: to `Cc1cc2c(cc1C)C(c1cccc(OC(C)C)c1)CC(=O)N2` (stereo not drawn) belongs 39.8 µM [falling, single point]. On the same count and under the same terms, under `CCc1ccc(S(=O)(=O)NCCc2csc(-c3ccccc3)n2)s1` stands 7.94 µM [falling, partial curve]; under `COc1ccc(OC)c(Nc2c3c(nc4ccccc24)CCC3)c1`, 7.94 µM [rising, partial curve]. Still for that read-out and setting: to `CCCN(Cc1cccs1)C(=O)Nc1ccc(F)c(Cl)c1` belongs 10 µM [falling, partial curve]; to `CCc1ccc(NC(=O)c2ccc(F)c(S(=O)(=O)NCCc3ccc(OC)c(OC)c3)c2)cc1`, 39.8 µM [falling, partial curve].

Turning to `COc1cccc(Nc2sc(C(=O)c3ccc(Cl)cc3)c(N)c2C(=O)NCCc2ccc(OC)c(OC)c2)c1`, the AC50 under setting [1] is 12.6 µM [falling, partial curve]. As to `Cc1ccc(C)c(NC(=O)Cn2c(=O)n(Cc3ccc4c(c3)OCO4)c(=O)c3ccccc32)c1`, the concentration at half-maximal activity (AC50) under setting [1] was 10 µM [rising, partial curve]. On to `CCCSc1nnc2n(-c3cccc(C)c3)c(=O)c3c4c(sc3n12)CCCC4`, for which the AC50 under setting [2] is 31.6 µM [falling, single point] and the concentration at half-maximal activity (AC50) under setting [3] was 39.8 µM [falling, partial curve]. Turning to `COc1cc(OC)c(CN2CCN(c3ccc(F)cc3)CC2)cc1Br`, the AC50 under setting [1] was 12.6 µM [falling, partial curve].

On to `Cn1c(Oc2ccccc2)nc2c1c(=O)n(Cc1ccc(Cl)cc1Cl)c(=O)n2C`, for which, under setting [1], the AC50 was 10 µM [falling, partial curve]. On to `CC(C)CCNc1ncnc2c1cnn2-c1cccc(Cl)c1`, for which the concentration at half-maximal activity (AC50) under setting [1] is 39.8 µM [falling, single point]. `Cc1ccccc1C(c1c(C)n(C)n(-c2ccccc2)c1=O)c1c(C)n(C)n(-c2ccccc2)c1=O`: under setting [1], the half-maximal activity concentration (AC50) is 39.8 µM [falling, single point]. Take `CCOc1ccc2c(c1)c(=O)c(C(=O)c1ccc(C)cc1)cn2Cc1ccccc1OC`: the concentration at half-maximal activity (AC50) under setting [1] was 20 µM [falling, partial curve].

Regarding `CCOc1ccccc1NC(=O)CN1C(=O)C2(SCC(=O)N2c2ccc(C)cc2)c2ccccc21` (stereo not drawn), the AC50 under setting [1] was 10 µM [falling, partial curve]. The same measure, in the same setting: to `CCc1nnc(NC(=O)CCC(=O)N2CCN(CCc3ccccc3)CC2)s1` belongs 3.16 µM [falling, full curve]. On the same count and under the same terms, under `CC(C)c1ccc(NC(=O)Cn2c(=O)n(Cc3nc(-c4ccccc4)no3)c(=O)c3cc4c(cc32)OCO4)cc1` stands 7.94 µM [falling, partial curve]. On to `CCS(=O)(=O)c1ncc(Cl)c(C(=O)N(Cc2ccccc2)c2ccc(OC)cc2)n1`, for which the half-maximal activity concentration (AC50) under setting [1] was 2.51 µM [falling, partial curve]. Same read-out and setting: under `O=C(CN1CCN(S(=O)(=O)c2ccc(F)cc2)CC1)Nc1ccc(Cl)c(C(F)(F)F)c1` stands 15.8 µM [falling, partial curve]; under `CCCOC(=O)c1ccc(NC(=O)CCC(=O)OCC)cc1`, 1.26 µM [falling, full curve]. Same read-out and setting: under `CC(C)OCCCN1C(=O)c2[nH]nc(-c3ccccc3O)c2C1c1cccc(OCc2ccccc2)c1` (stereo not drawn) stands 12.6 µM [falling, partial curve]; under `O=C1CC(c2ccco2)c2ccc3ccccc3c2N1` (stereo not drawn), 2 µM [rising, partial curve] [measured here: IkB-luc green channel]. Regarding `N=C(N)SCCON1C(=O)c2ccccc2C1=O`, the AC50 under setting [1] is 3.16 µM [falling, partial curve]. Regarding `O=C(Nc1nnc(S(=O)(=O)N2CCc3ccccc32)s1)c1ccccc1Cl`, under setting [1], the AC50 was 20 µM [rising, partial curve]. Still for that read-out and setting: to `Cc1c2cnn(CC(=O)N3CCN(c4ccc(F)cc4)CC3)c(=O)c2c(C)n1Cc1ccccc1F` belongs 10 µM [falling, partial curve].

Regarding `CC1(C)Cc2ccccc2-c2nnc(SCC(=O)N3CCN(c4ccccc4)CC3)n21`, under setting [1], the AC50 is 12.6 µM [falling, partial curve]. On the same count and under the same terms, to `CN(C)c1ccc(CNC(=O)Cn2ccc3cc(S(=O)(=O)N4CCCCCC4)ccc32)cc1` belongs 2.51 µM [falling, full curve, poor fit]; to `O=C(CCn1cnc2onc(-c3ccc(F)cc3)c2c1=O)N1CCN(c2ccccc2F)CC1`, 25.1 µM [falling, partial curve]. Turning to `C=C(C)c1cccc(C(C)(C)NC(=O)N2CCN(c3ccccn3)CC2)c1`, the concentration at half-maximal activity (AC50) reads like this: under setting [2], 1.26 µM [falling, partial curve]; under setting [3], 25.1 µM [falling, partial curve].

Take `Cc1ccc2c(CC(=O)N(Cc3cccc(Cl)c3)C3CCS(=O)(=O)C3)coc2c1` (stereo not drawn): under setting [1], the AC50 was 25.1 µM [falling, partial curve].

For `Cc1ccc(C(=O)CC2(O)C(=O)N(Cc3ccccc3)c3ccccc32)c(C)c1` (stereo not drawn), the concentration at half-maximal activity (AC50) under setting [1] was 25.1 µM [falling, partial curve]. For the compound `CCOC(=O)C1CCCN(C(=O)c2ccc(NC(=O)c3nsc4ccccc34)cc2)C1` (stereo not drawn), the AC50 under setting [1] was 1.26 µM [falling, full curve]. Take `COC(=O)c1ccccc1NC(=O)Cn1c(=O)cc(C)c2c(C)nn(-c3cccc(Cl)c3C)c21`: the concentration at half-maximal activity (AC50) under setting [1] is 7.94 µM [falling, partial curve].

As for `COc1ccc(Cl)cc1NC(=O)Cn1cnc2sc(C)c(S(=O)(=O)N3CCN(c4ccccc4OC)CC3)c2c1=O`, the half-maximal activity concentration (AC50) under setting [1] is 12.6 µM [falling, partial curve].

For the compound `COc1ccccc1-n1c(=O)oc2ccc(Cl)cc2c1=O`, under setting [1], the half-maximal activity concentration (AC50) is 6.31 µM [falling, full curve]. The same measure, in the same setting: to `CCCc1nn2c(=O)cc(COC(=O)c3ccco3)nc2s1` belongs 39.8 µM [falling, single point]; to `COc1ccc(CCNC(=O)Cn2c(=O)c3cccn3c3ccccc32)cc1OC`, 15.8 µM [falling, partial curve]; to `COc1ccccc1N1CC(O)=C(c2nc3ccccc3s2)C1=N`, 12.6 µM [falling, partial curve].
